# Some of these results come from one statement about several compounds together.
# Assay: Population pharmacokinetics in HCV GT1 subjects with CKD Stage 4 or 5 (Example 17)
# Format: in vivo, human
# Details: steady-state, population pharmacokinetic models
# Procedure: Pharmacokinetic data from a Phase 2 study (N=38) in subjects with normal or mild renal impairment (subjects “without kidney disease”) were combined with preliminary data from a Phase 3b study in subjects with CKD Stage 4 (N=5) or Stage 5 on hemodialysis (N=14). In both studies subjects received OBV/PTV/r 25/150/100 mg QD and DSV 250 mg BID±RBV for 12 weeks. Pharmacokinetic parameters and steady-state exposures of the 3-DAA regimen were estimated using population pharmacokinetic models.
substance,measurement,value
"dimethyl (2S,2′S)-1,1′-((2S,2′S)-2,2′-(4,4′-((2S,5S)-1-(4-tert-butylphenyl)pyrrolidine-2,5,diyl)bis(4,1-phenylene))bis(azanediyl)bis(oxomethylene)bis(pyrrolidine-2,1-diyl)bis(3-methyl-1-oxobutane-2,1-diyl)dicarbamate [Compound 2]",difference in exposures between subjects without kidney disease and CKD Stage 5,< 20%

# Source: patent US20180177778A1, “Methods for Treating HCV” (priority 2015, published 2018)
